Source: paper PMC3400551
Results are given in words; binding and its absence hold for the method and conditions named. Binding can be weak; no strength is given.

Assays:
[1] = molecular target: Streptococcus pneumoniae TIGR4 RsfA (Streptococcus pneumoniae TIGR4); experiment: two-hybrid; baits in pGBKT7g and preys in pGADT7g, haploid strains AH109 and Y187 mated; growth of diploids on medium lacking Leu, Trp and His with 0 to 100 mM 3-AT; quadruplicates
[2] = molecular target: Synechocystis PCC 6803 RsfA (Synechocystis PCC 6803); experiment: as above

Row | Binder | binding [1] | binding [2]
1 | Streptococcus pneumoniae TIGR4 ribosomal protein L14 (protein, UniProt B1I8K8 1-122) MIQTETRLKVADNSGAREILTIKVLGGSGRKFANIGDVIVASVKQATPGGAVKKGDVVKAVIVRTKSGARRADGSYIKFDENAAVIIREDKTPRGTRIFGPVARELREGGFMKIVSLAPEVL | binds | –
2 | Synechocystis PCC 6803 ribosomal protein L14 (protein, UniProt P73310 1-122) MIQQQTYLNVADNSGARKLMCLRVLGTGNCTYGGIGDQIIAVVKDALPNMPIKKSDVVRAVIVRTKQPLRRASGMSIRFDDNAAVIINAEGNPRGTRVFGPVARELRDKNFTKIVSLAPEVL | – | binds
